From the supplement of paper PMC7024190
Where a name gives a salt, the structure may show the parent alone. The list shows a part of the results. This data set is noisy: repeats of one test often differ as much as different tests do.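 The cells were human embryonic kidney cells carrying a Renilla luciferase gene, driven by the HSV-TK promoter, on a plasmid put in briefly by transfection. This is the first-round screen of about ten thousand compounds, looking for ones that raise reporter output.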

What follows are molecules tested on HEK 293FT (assay: log relative Renilla luciferase luminescence (reporter expression vs reference, reference not stated) (log (base not stated)); higher = higher recombinant reporter expression). Conditions: 10 µM; time after transfection 48 h.

SMILES | log
N#C/C(=C\c1ccc(O)c(O)c1)C(=O)Nc1ccccc1 | 0.0179
CO[C@@H]1[C@H](O)[C@@H](CO)O[C@H]1n1cnc2c(NC3CCCCC3)ncnc21 | 0.0191
Brc1c(NC2=NCCN2)ccc2nccnc12 [UK 14,304 tartrate] | -0.0171
Cn1cc(C2=C(c3cn(CCCSC(=N)N)c4ccccc34)C(=O)NC2=O)c2ccccc21 [Ro 31-8220 mesylate] | 0.00213
CCCCCCCCCCC[C@@H](C[C@@H]1OC(=O)[C@H]1CCCCCC)OC(=O)[C@H](CC(C)C)NC=O [Orlistat] | -0.0949
CCN(Cc1ccncc1)C(=O)C(CO)c1ccccc1 (stereo unspecified) [Tropicamide] | -0.0734
NS(=O)(=O)c1nn2cc(-c3ccccc3)nc2s1 | -0.0275
N#C/C(=C\c1ccc(O)c(O)c1)C(=O)NCCCc1ccccc1 | 0.023
CC1=Nc2ccc(Cl)cc2S(=O)(=O)N1 [Diazoxide] | 0.103
O=C(O)/C=C/c1ccc(Cn2ccnc2)cc1 [Ozagrel hydrochloride] | 0.0238
CCCCCCCC/C=C\CCCCCCCC(N)=O [Oleamide] | -0.173
O=C1NN(C(=O)Nc2ccc(Br)cc2)[C@@H](c2ccccc2)[C@@H]1c1ccccc1 | 0.114
C[C@@H](NCc1cc(Br)cc2[nH]c(=O)c(=O)[nH]c12)P(=O)(O)O | -0.0258
CN1CCN2c3ncccc3Cc3ccccc3C2C1 (stereo unspecified) [Mirtazepine] | -0.0369
O=C1CC2(CCCC2)CC(=O)N1CCCCNCC1COc2ccccc2O1 (stereo unspecified) | 0.0665
Cc1cccc(C#Cc2ccccc2)n1 [MPEP hydrochloride] | 0.11
